Results are given in words; binding and its absence hold for the method and conditions named. A result given as binding can be weak or reduced; the word gives no strength.
What was measured:
[1] = target: T1, Lactobacillus brevis ATCC 8287 SlpA surface layer protein (Lactobacillus brevis ATCC 8287) (UniProt Q05044); assay: SPR sensorgrams, SlpA immobilised, fibronectin 1 mM-10 nM as printed
T1 sequence (looked up): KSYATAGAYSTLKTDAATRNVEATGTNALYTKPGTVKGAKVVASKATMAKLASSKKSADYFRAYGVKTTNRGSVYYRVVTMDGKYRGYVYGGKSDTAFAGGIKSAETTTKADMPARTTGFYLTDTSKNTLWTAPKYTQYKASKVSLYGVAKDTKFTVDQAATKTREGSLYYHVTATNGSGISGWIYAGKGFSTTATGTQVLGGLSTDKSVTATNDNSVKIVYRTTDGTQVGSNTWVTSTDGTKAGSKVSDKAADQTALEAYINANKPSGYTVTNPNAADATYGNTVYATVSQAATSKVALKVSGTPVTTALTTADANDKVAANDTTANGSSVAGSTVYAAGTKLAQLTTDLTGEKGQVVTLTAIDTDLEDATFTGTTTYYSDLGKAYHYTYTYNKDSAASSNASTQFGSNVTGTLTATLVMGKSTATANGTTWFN

The chains behind the UniProt entries cited, without tags or fusion partners. Where a name states a change or a piece, a line headed by the entry shows the natural chain unless it says otherwise.
UniProt P02751: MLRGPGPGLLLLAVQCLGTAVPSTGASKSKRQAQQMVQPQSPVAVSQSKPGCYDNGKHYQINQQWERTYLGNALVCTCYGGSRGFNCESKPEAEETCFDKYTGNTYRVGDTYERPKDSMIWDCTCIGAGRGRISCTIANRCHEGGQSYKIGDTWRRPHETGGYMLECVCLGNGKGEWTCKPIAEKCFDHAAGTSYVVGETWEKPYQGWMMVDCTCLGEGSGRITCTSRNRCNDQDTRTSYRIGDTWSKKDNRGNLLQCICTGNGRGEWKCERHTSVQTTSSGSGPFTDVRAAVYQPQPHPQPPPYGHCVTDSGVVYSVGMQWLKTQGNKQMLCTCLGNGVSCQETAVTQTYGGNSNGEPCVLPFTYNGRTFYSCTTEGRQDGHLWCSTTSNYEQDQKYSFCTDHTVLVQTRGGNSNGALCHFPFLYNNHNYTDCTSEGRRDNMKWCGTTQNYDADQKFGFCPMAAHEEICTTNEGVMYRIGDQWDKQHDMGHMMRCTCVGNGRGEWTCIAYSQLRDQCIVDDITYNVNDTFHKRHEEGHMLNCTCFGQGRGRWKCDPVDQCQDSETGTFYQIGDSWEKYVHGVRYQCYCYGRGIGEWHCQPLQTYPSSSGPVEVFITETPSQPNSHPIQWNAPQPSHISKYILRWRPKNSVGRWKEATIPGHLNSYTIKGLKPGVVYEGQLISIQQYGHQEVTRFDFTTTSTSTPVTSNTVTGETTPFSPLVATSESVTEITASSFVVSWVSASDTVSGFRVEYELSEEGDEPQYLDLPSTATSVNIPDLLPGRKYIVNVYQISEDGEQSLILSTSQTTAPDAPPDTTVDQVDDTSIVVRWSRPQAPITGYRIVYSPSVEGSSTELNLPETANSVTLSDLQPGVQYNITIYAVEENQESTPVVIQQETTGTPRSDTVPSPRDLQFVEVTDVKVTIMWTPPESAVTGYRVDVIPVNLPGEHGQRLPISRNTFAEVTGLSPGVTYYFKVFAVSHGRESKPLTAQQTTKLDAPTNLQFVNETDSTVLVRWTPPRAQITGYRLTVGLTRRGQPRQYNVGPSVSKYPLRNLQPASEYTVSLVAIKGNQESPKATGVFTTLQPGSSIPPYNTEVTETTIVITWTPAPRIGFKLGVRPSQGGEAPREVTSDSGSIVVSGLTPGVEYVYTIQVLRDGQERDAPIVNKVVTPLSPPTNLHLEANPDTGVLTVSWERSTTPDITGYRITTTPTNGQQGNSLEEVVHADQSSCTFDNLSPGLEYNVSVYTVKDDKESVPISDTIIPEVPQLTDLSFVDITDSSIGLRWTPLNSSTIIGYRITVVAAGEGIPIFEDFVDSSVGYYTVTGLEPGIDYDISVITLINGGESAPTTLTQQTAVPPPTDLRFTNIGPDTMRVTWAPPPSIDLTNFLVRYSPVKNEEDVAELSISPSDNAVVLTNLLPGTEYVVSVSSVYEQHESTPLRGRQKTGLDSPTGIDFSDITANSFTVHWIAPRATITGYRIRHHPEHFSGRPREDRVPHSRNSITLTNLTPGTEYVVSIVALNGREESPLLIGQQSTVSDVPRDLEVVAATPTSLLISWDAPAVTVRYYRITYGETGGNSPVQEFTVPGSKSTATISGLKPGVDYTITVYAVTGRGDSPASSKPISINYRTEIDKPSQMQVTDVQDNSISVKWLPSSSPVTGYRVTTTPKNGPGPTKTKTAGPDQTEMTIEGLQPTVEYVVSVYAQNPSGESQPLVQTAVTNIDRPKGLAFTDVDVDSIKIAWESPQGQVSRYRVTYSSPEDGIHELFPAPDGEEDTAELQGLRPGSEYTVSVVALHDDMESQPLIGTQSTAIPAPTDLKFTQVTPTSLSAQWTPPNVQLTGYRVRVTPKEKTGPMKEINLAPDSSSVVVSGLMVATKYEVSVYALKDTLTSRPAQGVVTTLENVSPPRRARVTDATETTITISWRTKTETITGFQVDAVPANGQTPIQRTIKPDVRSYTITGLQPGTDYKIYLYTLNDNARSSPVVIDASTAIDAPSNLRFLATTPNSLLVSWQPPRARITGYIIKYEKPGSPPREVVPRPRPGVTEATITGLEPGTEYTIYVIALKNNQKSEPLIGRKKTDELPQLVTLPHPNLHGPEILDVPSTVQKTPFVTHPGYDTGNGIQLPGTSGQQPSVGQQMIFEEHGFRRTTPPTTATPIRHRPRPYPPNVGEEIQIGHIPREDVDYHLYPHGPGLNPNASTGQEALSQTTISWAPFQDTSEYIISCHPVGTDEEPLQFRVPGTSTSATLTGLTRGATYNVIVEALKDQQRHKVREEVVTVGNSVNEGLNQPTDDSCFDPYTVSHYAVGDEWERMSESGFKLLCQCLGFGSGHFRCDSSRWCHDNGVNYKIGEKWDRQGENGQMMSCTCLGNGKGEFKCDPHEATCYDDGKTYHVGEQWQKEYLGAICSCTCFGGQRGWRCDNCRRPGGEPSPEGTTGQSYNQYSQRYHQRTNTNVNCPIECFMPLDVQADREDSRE

[2] = target: T1, Lactobacillus brevis ATCC 8287 SlpA surface layer protein (Lactobacillus brevis ATCC 8287); assay: SPR (BIAcore 3000), SlpA coupled to a CM5 chip, fibronectin injected at graded concentrations (legend: 1 mM-10 nM), no benzamidine
[3] = target: T1, Lactobacillus brevis ATCC 8287 SlpA surface layer protein (Lactobacillus brevis ATCC 8287); assay: SPR (BIAcore 3000), SlpA coupled to a CM5 chip, fibronectin injected at graded concentrations (legend: 1 mM-10 nM), in the presence of 1 mM benzamidine
[4] = target: T1, Lactobacillus brevis ATCC 8287 SlpA surface layer protein (Lactobacillus brevis ATCC 8287); assay: SPR (BIAcore 3000), SlpA immobilised

Measured: binding

Fibronectin (human plasma) (from UniProt P02751)
binds: all assays above

Source: patent US20090214662A1 (UNIVERSITY OF MARYLAND BALTIMORE, published 2009)
